{
  "source": "patent US10669268B2",
  "about": "“Bicyclic derivatives” (Hoffmann-La Roche Inc., priority 2012, dated 2020)",
  "target": "ATX (human His-tagged) (Homo sapiens (Human), UniProt Q13822)",
  "assay": "Human ATX enzyme inhibition assay (fluorescence quenching, MR121 substrate)",
  "format": "biochemical",
  "settings": "30 nM ATX, 1 μM MR121 substrate, 30° C., pH 8.0",
  "note": "Structures were worked out from names or drawings and are uncertain.",
  "data": [
    {"smiles": "O=C(/C=C/c1ccc(S(=O)(=O)C(F)(F)F)cc1)N1CC[C@@H]2CN(C(=O)c3ccc4[nH]nnc4c3)C[C@@H]2CC1", "values": [
      {"measurement": "IC50", "result": 15, "unit": "nM"}
    ]}
  ]
}
